# The list is a part of this screen's results and no random one: it covers a few groups of compounds. Not every dose and run of a compound is shown. T/C is the treated group as % of the vehicle group. Some doses have a count of surviving animals in place of a T/C: the source holds a T/C of zero for them, seemingly a mark for toxic or unscored doses. Some doses without a T/C left all or most animals alive at the check, yet need not have been tolerated: the source hardly ever lists a survival T/C far under the control, and the zero likely stands for such cases as well. Survivors were counted at the toxicity check, usually on the fifth day, unless a day is given; later deaths do not show. Schedules are NCI's codes, read here as Q, the interval in days (D) or hours (H), X, the number of doses. For survival time, this PubChem deposit counts one and a half times the control or more as active, and values a quarter to a half above the control carry no call in these data; other NCI protocols may use other cut-offs. Some entries hold several experiments; the results are listed from low to high. Some T/C values are marked as having no survivor count here; that says nothing about deaths at the dose. Some T/C values carry the count of animals alive at the toxicity check (mostly the fifth day); without a count or a note in brackets, all were alive then.
# Test system: L1210 leukemia ip in BDF1 mice, survival T/C
# Assay: NCI In Vivo Anticancer Drug Screen. Data for tumor model L1210 Leukemia (intraperitoneal) in B6D2F1 (BDF1) mice
# Conditions: T/C endpoint: mean survival time, higher T/C = longer survival
# [1] = dose: 100.0 mg/kg/injection, schedule: Q04DX002 (ip), vehicle: saline with Tween-80
# [2] = dose: 200.0 mg/kg/injection, schedule: Q04DX002 (ip), vehicle: saline with Tween-80
# [3] = dose: 50.0 mg/kg/injection, schedule: Q04DX002 (ip), vehicle: saline
# [4] = dose: 100.0 mg/kg/injection, schedule: Q04DX002 (ip), vehicle: saline
# [5] = dose: 50.0 mg/kg/injection, schedule: Q01DX009 (ip), vehicle: Klucel (hydroxypropylcellulose) (HPC)
# [6] = dose: 100.0 mg/kg/injection, schedule: Q01DX009 (ip), vehicle: Klucel (hydroxypropylcellulose) (HPC)
# [7] = dose: 100.0 mg/kg/injection, schedule: Q01DX001 (ip), vehicle: saline
# [8] = dose: 200.0 mg/kg/injection, schedule: Q01DX001 (ip), vehicle: saline
# [9] = dose: 100.0 mg/kg/injection, schedule: Q04DX003 (ip), vehicle: Klucel (hydroxypropylcellulose) (HPC)
# [10] = dose: 200.0 mg/kg/injection, schedule: Q04DX003 (ip), vehicle: Klucel (hydroxypropylcellulose) (HPC)
# [11] = dose: 400.0 mg/kg/injection, schedule: Q04DX003 (ip), vehicle: Klucel (hydroxypropylcellulose) (HPC)
# [12] = dose: 50.0 mg/kg/injection, schedule: Q04DX003 (ip), vehicle: Klucel (hydroxypropylcellulose) (HPC)
smiles,measurement,setting,value
O=[N+]([O-])c1cc2c(c([N+](=O)[O-])c1)-c1c(cc([N+](=O)[O-])cc1[N+](=O)[O-])C2=NO,T/C,"dose: 50.0 mg/kg/injection, schedule: Q04DX002 (ip), vehicle: saline with Tween-80",92 % of control [survivor count not shown]
same,T/C,[1],92 % of control [survivor count not shown]
same,T/C,[2],92 % of control [survivor count not shown]
CC[O+](CC)CC,survivor count,[3],3 of 3
same,survivor count,[4],0 of 3
same,survivor count,"dose: 200.0 mg/kg/injection, schedule: Q04DX002 (ip), vehicle: saline",0 of 3
CCN(CC)CCOC(=O)C(O)(c1ccccc1OC)c1ccccc1OC,T/C,"dose: 75.0 mg/kg/injection, schedule: Q01DX001 (ip), vehicle: saline",98 % of control
BrC1CN2CC(Br)CN2C1,T/C,"dose: 10.0 mg/kg/injection, schedule: Q01DX001 (ip), vehicle: saline",98 % of control
same,T/C,"dose: 20.0 mg/kg/injection, schedule: Q01DX001 (ip), vehicle: saline",101 % of control
same,T/C,"dose: 40.0 mg/kg/injection, schedule: Q01DX001 (ip), vehicle: saline",107 % of control
same,survivor count,"dose: 80.0 mg/kg/injection, schedule: Q01DX001 (ip), vehicle: saline",2 of 4
O=C1c2cc([N+](=O)[O-])cc([N+](=O)[O-])c2-c2c1cc([N+](=O)[O-])cc2[N+](=O)[O-],T/C,[5],101 % of control [survivor count not shown]
same,T/C,[6],91 % of control [survivor count not shown]
NCCCC(N)C(=O)O.NP(=O)(O)N(CCCl)CCCl,T/C,"dose: 25.0 mg/kg/injection, schedule: Q01DX001 (ip), vehicle: saline",112 % of control
same,T/C,"dose: 25.0 mg/kg/injection, schedule: Q01DX009 (ip), vehicle: saline",106 % of control
same,T/C,"dose: 50.0 mg/kg/injection, schedule: Q01DX001 (ip), vehicle: saline",96 % of control [5 of 6 alive]
same,T/C,"dose: 50.0 mg/kg/injection, schedule: Q01DX009 (ip), vehicle: saline",106 % of control
same,T/C,[7],106 and 118 % of control
same,T/C,"dose: 100.0 mg/kg/injection, schedule: Q01DX009 (ip), vehicle: saline",121 % of control [4 of 6 alive]
same,T/C,[8],118 % of control
same,survivor count,"dose: 200.0 mg/kg/injection, schedule: Q01DX009 (ip), vehicle: saline",2 of 6
same,survivor count,"dose: 400.0 mg/kg/injection, schedule: Q01DX001 (ip), vehicle: saline",2 of 4
O=P(Cl)(Cl)NC12CC3CC(CC(C3)C1)C2,T/C,[5],95 % of control
same,T/C,[6],101 % of control
same,T/C,[9],92 % of control
same,survivor count,"dose: 200.0 mg/kg/injection, schedule: Q01DX009 (ip), vehicle: Klucel (hydroxypropylcellulose) (HPC)",2 of 6
same,T/C,[10],93 % of control
same,survivor count,[11],0 of 6
Nc1nnc(N)nn1,T/C,"dose: 100.0 mg/kg/injection, schedule: Q01DX001 (ip), vehicle: Klucel (hydroxypropylcellulose) (HPC)",101 % of control
same,T/C,[9],104 % of control
same,T/C,"dose: 200.0 mg/kg/injection, schedule: Q01DX001 (ip), vehicle: Klucel (hydroxypropylcellulose) (HPC)",108 % of control
same,T/C,[10],103 % of control
same,T/C,"dose: 400.0 mg/kg/injection, schedule: Q01DX001 (ip), vehicle: Klucel (hydroxypropylcellulose) (HPC)",112 % of control
same,T/C,[11],98 % of control
C=CCCC[P+](C)(c1ccccc1)c1ccccc1.F[P-](F)(F)(F)(F)F,T/C,"dose: 6.25 mg/kg/injection, schedule: Q04DX003 (ip), vehicle: Klucel (hydroxypropylcellulose) (HPC)",95 % of control
same,T/C,"dose: 12.5 mg/kg/injection, schedule: Q04DX003 (ip), vehicle: Klucel (hydroxypropylcellulose) (HPC)",96 % of control
same,survivor count,"dose: 25.0 mg/kg/injection, schedule: Q04DX003 (ip), vehicle: Klucel (hydroxypropylcellulose) (HPC)",0 of 6
same,survivor count,[12],0 of 6
same,survivor count,[9],0 of 6
same,survivor count,[10],0 of 6
same,survivor count,[11],0 of 6
O=C(Cc1ccccc1)OC1CN2CCC1CC2 (configuration not stated),T/C,"dose: 25.0 mg/kg/injection, schedule: Q04DX002 (ip), vehicle: saline",97 % of control
same,T/C,[3],97 % of control
same,survivor count,[4],1 of 3
[N-]=[N+]=Nc1ccc([N+](=O)[O-])c(C(=O)O)c1,T/C,[1],88 % of control
same,T/C,[2],95 % of control
same,T/C,"dose: 400.0 mg/kg/injection, schedule: Q04DX002 (ip), vehicle: saline with Tween-80",98 % of control
CN(C)CCCl,T/C,[7],104 % of control [survivor count not shown]
same,T/C,[8],96 % of control [survivor count not shown]
CN(CCCl)N=Nc1ccc([N+](=O)[O-])cc1C(N)=O,T/C,[12],102 % of control
same,T/C,[9],107 % of control
same,T/C,[10],123 % of control

# — PubChem BioAssay AID248 (DTP/NCI, 2004)
